Data as given in PubChem BioAssay AID1347423 (Functional Genomics Laboratory (NCATS/FGL), 2020).
About 210 (0.4%) of roughly 52,000 sequences were called active.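 How the source made its calls: active means gene whose silencing raises cell survival under the drug, median off-target-corrected z-score across its silencing RNAs 2 or more; inactive means the rest.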 The list shows a part of the results.

assay: Resistance to Poly (ADP-Ribose) Polymerase inhibitor: Gene Identification via Genome-wide siRNA Screen; conditions: mouse BRCA2 R2336H ES cells, olaparib, CellTiter-Glo viability; stronger effect = higher value
Summary of the method: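 Genome-wide siRNA screen (3 siRNAs/gene, 20 nM) in mouse ES cells carrying hypomorphic BRCA2 R2336H; olaparib 500 nM added 48 h post-transfection, CellTiter-Glo viability 72 h later. Normalized to plate-median negative control; MAD z-scores, gene median, seed-adjusted.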

Sequence | z-score
GGCUGCAUUACCCAGCUUATT against Olfr853 | inactive: -2.62
GGAGAGCUGCAUCAAAAAGTT against Prdm16 | inactive: 0.0426
GCAUCCUACUUCUCAACUUTT against Ceacam12 | inactive: -0.797
GGUAACAUCUCCAUCAGCCTT against Nxph3 | inactive: -0.34
CCUCUAUGAUUUGUAGAACTT against Prkrir | inactive: 0.807
GGGCUUAAAACUUUUCAUATT against Fshprh1 | inactive: -1.28
CGGUUUACAUUCCUGACUUTT against AI840980 | inactive: -0.237
CGUGGUUCCUCUUUGGUGUTT against Kcnj10 | inactive: 0.284
GGUGUAUGGACAAGGAGUUTT against Pgpep1 | inactive: -0.931
CGAGAAAAGAGGUUGGCUGTT against 6330444E15Rik | inactive: 1.5
GGGCUGAAGUUUUAUACCATT against Wasf1 | inactive: 0.00799
CCAAGAACCUUCGUCUGCUTT against Apobec2 | inactive: -0.469
CGACACUGAGCUAAGAGAUTT against 2210415M20Rik | inactive: -1.87
GCUCUAUAUCUCCUUAGCCTT against Olfr450 | inactive: -0.349
GGCAAUUCGAAUUUUGGUUTT against 2700060E02Rik | inactive: 0.788
GGUAGAAAUUUACCUCAUUTT against Dusp4 | inactive: -0.722
GGAACUCACGCUGAGUUCCTT against Lrrtm1 | inactive: 1.35
CCUGGCUAUUGGUGAGUGATT against Slc30a3 | inactive: -0.23
GGAGGACCUUCAGAAACUCTT against Gdap2 | inactive: 1.03
GCUUUUCGAACAAGAGAAGTT against 1110001J12Rik | inactive: 0.0445
CCACACAAUGGCCAAGUAGTT against Ppp1r16a | inactive: 0.757
GGUUCCAUCUGUCCUACUUTT against Actr10 | inactive: -0.862
GGAGAAAGCAGAGACAAUGTT against Tnfrsf13c | inactive: 0.256
GGACUGAUAGAGGACUUCCTT against Pldn | inactive: 0.0197
CCUGUCUUUGAACGAUGUGTT against Olfr1279 | inactive: -0.419
CCCAUUCAACUUUAGGCCCTT against Hdac7a | inactive: 1.33

Taken from above:
Entry of CGACACUGAGCUAAGAGAUTT against 2210415M20Rik under z-score: inactive: -1.87
Entry of CCUGUCUUUGAACGAUGUGTT against Olfr1279 under z-score: inactive: -0.419

The listing continues.

Sequence | z-score
CCUAUCUCGGUCAUUGGCATT against Mscp | inactive: -0.29
GGCUAAGAACCCACAGGAGTT against 2310044H10Rik | inactive: 0.381
GGCAAAAACAUGAUUCUCUTT against Rgmc | inactive: 0.0148
CGAAACCUGUUCUUCUGCCTT against Serpinb8 | inactive: -0.555
CCUUACUUGUUCUCAUUUGTT against 4930422J18Rik | inactive: -0.461
GGAAUAAGAUCUGGUAUGATT against Idh2 | inactive: 0.968
CCUAUUACAAUGUACGUGUTT against Ssh3 | inactive: 0.714
GGAUGUACUUGACACCCAGTT against Cyfip1 | inactive: -0.21
GGAAAACCAGAUAAAGAAATT against Cog1 | inactive: -0.576
GGACAAACUUCAAAAAGGUTT against 4932418E24Rik | inactive: 2.24
GGCUUCCCGGAGUAACAAUTT against Dlgap1 | inactive: -1.16
GGAGCAUCACAGAUAUCUATT against Ccr8 | inactive: 0.74
GCAGAUUGGUUAAGUAUUCTT against Rttn | inactive: 1.08
GGACUUGUACCUGACCUGATT against 2310020H20Rik | inactive: -2.93
CCUUAUGCAUGACUUGAGUTT against Sec8l1 | inactive: 1.33
GGCAGAGUGCUGACUUCAUTT against Cabc1 | inactive: -0.764
GCUUUCUGAAUCCCAAGAGTT against Sh3bgr | inactive: -0.0618
GCAACACAUUUGAACCACUTT against Usp15 | active: 2.9
GGUCUGGUAUGAGGAGAACTT against Prodh2 | inactive: -1.4
GCCCAAGGUAGAUUCCAGCTT against 2410024A21Rik | inactive: -0.883
GGCAGUUUCUGUGCUAUACTT against Olfr984 | inactive: -1.84
CCCUCUUUAUCGUCUGUGATT against Gpha2 | inactive: -0.468
GGAUUUUGGCCAAAUUGGUTT against Slc25a30 | inactive: 0.184
GGCUUGUAUGACAAUAAACTT against Vipr1 | inactive: 1.88
GCAGUUAAAGCAAGCCUCUTT against Tas2r107 | inactive: -0.301
GGAAUACAUCAUCCAGGUGTT against Cntfr | inactive: 0.3

Sequence | z-score
GGAAUUUGAAGCUCUUAUGTT against Add1 | inactive: 0.788
GGUUUCCAUGUUCUUCCGATT against Pxk | inactive: -0.969
GGACUUGUGCAUUAAGUACTT against Fbxw11 | inactive: 1.1
GGUCUUCAAAGAAAGGAUCTT against Farslb | inactive: -1.86
GGAAAAGAUAGAGUUACUUTT against 4933421E11Rik | inactive: 0.536
GGUUGAAUGAGGUUAUAAGTT against Harp | inactive: 0.156
GGAGAAACUGGACAACCUGTT against Eno2 | inactive: 1.07
GGCAUGCUAAAAAUAACUGTT against 1810004F21Rik | inactive: 0.865
CCAAGCGAAAUCGAGGUGUTT against Mosg | inactive: -0.775
GCCAAGCUUGCUGGAUCUUTT against 2310033P09Rik | inactive: -1.04
GGUGUUAAGUCACAAAAUGTT against Mrg1 | inactive: 0.556
GGAUAUGAAUGAGACCUUCTT against Cables2 | inactive: -0.0231
GGGAGCUAUGAACUCCUUUTT against Krtap5-5 | inactive: -0.916
GGAAAUGCUUGUUAAGGCUTT against 2510027J23Rik | inactive: 0.732
GGAGAGCAGCAUUGAUAACTT against S100a5 | inactive: 0.0405
GGAAAUCUCGUGAUUUUCATT against Tead1 | inactive: 1.63
GGUGAAUCGGGCCAAUAAGTT against Slc11a2 | inactive: 1.25
GGAUGUAGACUUUAUCAAUTT against 4921508O11Rik | inactive: 0.818
GGAAACAGCACAACAAACGTT against Adam26 | inactive: 0.0159
GGACGUGGUCCAUAGACCATT against 6030411F23Rik | inactive: 2.16
CCUGCUACCGUACAGUCUCTT against Esm1 | inactive: -1.7
GGCUCCGUUAUAGAUGACATT against Aip | inactive: -2.4
GGAAUUUGUAAAUUUCCGATT against Gbas | inactive: 0.765
GGACCUUAAGAGAUAUCAATT against BC048390 | inactive: 1.69
GGUGGAUGAUGUUUAUCUCTT against Grsf1 | inactive: 1.17
GGACCAUGCUGGAUACUAUTT against BC023823 | inactive: -1.24

Quoted at random: 7 entries already listed
Sequence | z-score
CGUGGUUCCUCUUUGGUGUTT against Kcnj10 | inactive: 0.284
GGGCUGAAGUUUUAUACCATT against Wasf1 | inactive: 0.00799
GGUAGAAAUUUACCUCAUUTT against Dusp4 | inactive: -0.722
GGAGAAACUGGACAACCUGTT against Eno2 | inactive: 1.07
GGAUGUAGACUUUAUCAAUTT against 4921508O11Rik | inactive: 0.818
GGAAAAGAUAGAGUUACUUTT against 4933421E11Rik | inactive: 0.536
GGAGGACCUUCAGAAACUCTT against Gdap2 | inactive: 1.03

Remaining list, next part:

Sequence | z-score
GGUGAUUGCCCGUUGAUUGTT against 2310069P03Rik | inactive: -0.116
GGCUCUUACACUAUAUUUUTT against Tle1 | inactive: 0.0257
GGGAUCUCUGAGCUCUGCUTT against Rilp | inactive: -0.91
GGUAGCUGUCCAGGGUUAUTT against AI839550 | inactive: -0.817
CGAAGGUCAAACAGUUUGATT against Stxbp6 | inactive: -0.829
GUUUGUGCUGUUAGGUUUUTT against Olfr1347 | inactive: 0.362
GCAUUCGAAAUGAAGAUAATT against Dnajb1 | inactive: 0.47
GGAUGUAAAACCCUAUAAUTT against 1700049G17Rik | inactive: -2.06
CGUAUCAGAUAUAUCACAUTT against 2610034N03Rik | inactive: 0.678
GCCGAAAGCUAAAUCAAUCTT against Tnfrsf13c | inactive: 0.0143
GGUCAUACAUGUGAAGACATT against 2310007F12Rik | inactive: 1.39
GGGAAGGGUCCAAAAAUCUTT against Mmp17 | inactive: 0.544
CCUCUCCUGCUCUGACAUATT against Olfr933 | inactive: -1.38
GGUUUUCACUGCUAUAACATT against Lass6 | inactive: -0.204
GGCUGACAUCCAGAAUUUCTT against Dci | inactive: 0.394
GGCGAUCAGGCAUCAUCCUTT against Aox1 | inactive: 1.23
GGAAAGCUUACAGUUGAAATT against 4933427D06Rik | inactive: 0.21
GGCAUUACCAAUUUUUGUATT against Tada2l | inactive: 0.67
AGUAUACUGGUUUCAUAACTT against MGC59529 | inactive: -0.0806
UGGUACCACCAUUUUUACCTT against Olfr452 | inactive: -0.557
AGGAUACGAUUGAACGGCUTT against Rac3 | inactive: 1.01
GGAGCUAUCAGAGAAGAGGTT against Slc13a4 | inactive: 1.08
GGCUUUUCAUUUGAUUAAGTT against 2310032D16Rik | inactive: 0.0265
GCAACACGUACGAGCUCAATT against Pou2af1 | inactive: -1.96
GGCUUUGUGCUAAAAAAAATT against Pgm2l1 | inactive: 0.12
GGUCAUCAGCUCUAUGAGCTT against D930046M03 | inactive: 0.283
